Experimental data: ChEMBL document CHEMBL4316593 (Eur J Med Chem, 2019)
This continues a long series; more values of the same kind are listed elsewhere.

How the values were obtained:
Assay type in all cases: cell-based
Conditions in all cases: U-87MG ATCC
[1] = Inhibition of RTK/PI3K/AKT/mTOR signaling in human U87 cells assessed as down regulation of ANO10 gene expression at cytotoxic IC50 measured after 48 hrs relative to control
[2] = Inhibition of RTK/PI3K/AKT/mTOR signaling in human U87 cells assessed as down regulation of PRKAR2A gene expression at cytotoxic IC50 measured after 48 hrs relative to control
[3] = Inhibition of RTK/PI3K/AKT/mTOR signaling in human U87 cells assessed as down regulation of VMP1 gene expression at cytotoxic IC50 measured after 48 hrs relative to control
[4] = Inhibition of RTK/PI3K/AKT/mTOR signaling in human U87 cells assessed as down regulation of PNP gene expression at cytotoxic IC50 measured after 48 hrs relative to control
[5] = Inhibition of RTK/PI3K/AKT/mTOR signaling in human U87 cells assessed as up regulation of CTNNAL1 gene expression at cytotoxic IC50 measured after 48 hrs relative to control
[6] = Inhibition of RTK/PI3K/AKT/mTOR signaling in human U87 cells assessed as up regulation of FK506 binding protein 8 gene expression at cytotoxic IC50 measured after 48 hrs relative to control
[7] = Inhibition of RTK/PI3K/AKT/mTOR signaling in human U87 cells assessed as down regulation of NCEH1 gene expression at cytotoxic IC50 measured after 48 hrs relative to control
[8] = Inhibition of RTK/PI3K/AKT/mTOR signaling in human U87 cells assessed as up regulation of SH2 domain containing 4A gene expression at cytotoxic IC50 measured after 48 hrs relative to control
[9] = Inhibition of RTK/PI3K/AKT/mTOR signaling in human U87 cells assessed as down regulation of TRAPPC11 gene expression at cytotoxic IC50 measured after 48 hrs relative to control
[10] = Inhibition of RTK/PI3K/AKT/mTOR signaling in human U87 cells assessed as down regulation of GINS2 gene expression at cytotoxic IC50 measured after 48 hrs relative to control
[11] = Inhibition of RTK/PI3K/AKT/mTOR signaling in human U87 cells assessed as down regulation of CCNL1 gene expression at cytotoxic IC50 measured after 48 hrs relative to control
[12] = Inhibition of RTK/PI3K/AKT/mTOR signaling in human U87 cells assessed as up regulation of PRDX5 gene expression at cytotoxic IC50 measured after 48 hrs relative to control
[13] = Inhibition of RTK/PI3K/AKT/mTOR signaling in human U87 cells assessed as up regulation of ATP binding cassette subfamily C member 2 gene expression at cytotoxic IC50 measured after 48 hrs relative to control
[14] = Inhibition of RTK/PI3K/AKT/mTOR signaling in human U87 cells assessed as up regulation of lysine acetyltransferase 6B gene expression at cytotoxic IC50 measured after 48 hrs relative to control
[15] = Inhibition of RTK/PI3K/AKT/mTOR signaling in human U87 cells assessed as down regulation of FBXO30 gene expression at cytotoxic IC50 measured after 48 hrs relative to control
[16] = Inhibition of RTK/PI3K/AKT/mTOR signaling in human U87 cells assessed as down regulation of EPC2 gene expression at cytotoxic IC50 measured after 48 hrs relative to control
[17] = Inhibition of RTK/PI3K/AKT/mTOR signaling in human U87 cells assessed as down regulation of INTS12 gene expression at cytotoxic IC50 measured after 48 hrs relative to control
[18] = Inhibition of RTK/PI3K/AKT/mTOR signaling in human U87 cells assessed as down regulation of ZNF699 gene expression at cytotoxic IC50 measured after 48 hrs relative to control
[19] = Inhibition of RTK/PI3K/AKT/mTOR signaling in human U87 cells assessed as down regulation of ZSCAN26 gene expression at cytotoxic IC50 measured after 48 hrs relative to control
[20] = Inhibition of RTK/PI3K/AKT/mTOR signaling in human U87 cells assessed as down regulation of LGMN gene expression at cytotoxic IC50 measured after 48 hrs relative to control
[21] = Inhibition of RTK/PI3K/AKT/mTOR signaling in human U87 cells assessed as down regulation of HMGN3 gene expression at cytotoxic IC50 measured after 48 hrs relative to control
[22] = Inhibition of RTK/PI3K/AKT/mTOR signaling in human U87 cells assessed as up regulation of mal, T-cell differentiation protein 2 (gene/pseudogene) gene expression at cytotoxic IC50 measured after 48 hrs relative to control
[23] = Inhibition of RTK/PI3K/AKT/mTOR signaling in human U87 cells assessed as down regulation of STX16 gene expression at cytotoxic IC50 measured after 48 hrs relative to control
[24] = Inhibition of RTK/PI3K/AKT/mTOR signaling in human U87 cells assessed as down regulation of HMG20B gene expression at cytotoxic IC50 measured after 48 hrs relative to control
[25] = Inhibition of RTK/PI3K/AKT/mTOR signaling in human U87 cells assessed as down regulation of SDE2 gene expression at cytotoxic IC50 measured after 48 hrs relative to control
[26] = Inhibition of RTK/PI3K/AKT/mTOR signaling in human U87 cells assessed as up regulation of RAP1GAP2 gene expression at cytotoxic IC50 measured after 48 hrs relative to control
[27] = Inhibition of RTK/PI3K/AKT/mTOR signaling in human U87 cells assessed as up regulation of related RAS viral (r-ras) oncogene homolog gene expression at cytotoxic IC50 measured after 48 hrs relative to control
[28] = Inhibition of RTK/PI3K/AKT/mTOR signaling in human U87 cells assessed as down regulation of ACTB gene expression at cytotoxic IC50 measured after 48 hrs relative to control
[29] = Inhibition of RTK/PI3K/AKT/mTOR signaling in human U87 cells assessed as down regulation of ATAD3A gene expression at cytotoxic IC50 measured after 48 hrs relative to control
[30] = Inhibition of RTK/PI3K/AKT/mTOR signaling in human U87 cells assessed as up regulation of mediator complex subunit 22 gene expression at cytotoxic IC50 measured after 48 hrs relative to control
[31] = Inhibition of RTK/PI3K/AKT/mTOR signaling in human U87 cells assessed as up regulation of WD repeat domain 54 gene expression at cytotoxic IC50 measured after 48 hrs relative to control
[32] = Inhibition of RTK/PI3K/AKT/mTOR signaling in human U87 cells assessed as down regulation of ANKRD13A gene expression at cytotoxic IC50 measured after 48 hrs relative to control

Compound `CC(=O)C(=NNc1ccccc1C#N)C(C)=O` has a log2FC [1] of -0.881, a log2FC [2] of -0.519 and a log2FC [3] of -1.33. The log2FC [4] was -1.16, the log2FC [5] was 0.446 and the log2FC [6] was 0.849. For the same compound, the log2FC [7] was -1.68, the log2FC [8] was 1.11 and the log2FC [9] was -0.97. For the same compound, the log2FC [10] was -1.29, the log2FC [11] was -0.67 and the log2FC [12] was 0.635. It also gave a log2FC [13] of 1.42, a log2FC [14] of 1.23 and a log2FC [15] of -0.967. For the same compound, the log2FC [16] was -0.787, the log2FC [17] was -1.23 and the log2FC [18] was -2.18. It also gave a log2FC [19] of -1.17, a log2FC [20] of -1.44 and a log2FC [21] of -1.02. The log2FC [22] was 1.01, the log2FC [23] was -0.898 and the log2FC [24] was -0.655. The log2FC [25] was -0.773, the log2FC [26] was 0.523 and the log2FC [27] was 1.42. The log2FC [28] was -1.05, the log2FC [29] was -0.698 and the log2FC [30] was 0.903. For the same compound, the log2FC [31] was 1.48 and the log2FC [32] was -0.561.
